For six molecules, binding results are on record in patent publication US20190367627A1.

Protein sequences, listed by entry. Tags and fused reporters are not part of them. Lines headed by an entry give the natural chain unless they say otherwise; changes in a name come on top.
UniProt Q9Y5U5: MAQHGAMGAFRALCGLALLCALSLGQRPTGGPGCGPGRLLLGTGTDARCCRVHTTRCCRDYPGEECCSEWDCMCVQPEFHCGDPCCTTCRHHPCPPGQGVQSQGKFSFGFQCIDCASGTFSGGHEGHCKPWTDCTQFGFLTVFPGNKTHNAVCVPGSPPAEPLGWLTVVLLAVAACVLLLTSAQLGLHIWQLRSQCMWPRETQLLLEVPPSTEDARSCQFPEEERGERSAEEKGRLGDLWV

Substitutions are numbered along the chain they refer to. Names may count otherwise. Results are given in words; binding and its absence hold for the method and conditions named. Some entries that bind do so weakly or less than the wild type.

The labels stand for the following.
B1: pab1876 (IgG1) (antibody, V domains shown)
VH: QVQLVQSGAEVKKPGASVKVSCKGSGYTFTDYAMYWVRQAPGQGLEWIGVIRTYSGDVTYNQKFKDRATMTVDKSISTAYMELSRLRSDDTAVYYCAKSGTVRGFAYWGQGTLVTVSS
VL: DIVMTQSPDSLAVSLGERATINCKSSQSLLNSGNQKNYLTWYQQKPGQPPKLLIYWASTRESGVPDRFSGSGSGTDFTLTISSLQAEDVAVYHCQNDYSYPYTFGQGTKLEIKR
B2: pab1876 D97A (IgG1) (antibody, V domains shown)
VH: B1 VH
VL: DIVMTQSPDSLAVSLGERATINCKSSQSLLNSGNQKNYLTWYQQKPGQPPKLLIYWASTRESGVPDRFSGSGSGTDFTLTISSLQAEDVAVYHCQNAYSYPYTFGQGTKLEIK
B3: pab1967 (IgG1 N297A) (antibody, V domains shown)
VH: B1 VH with D31G, Y35H, I48M, V50L, D57G, T59S, K65R, D66E, K74T, V114I
VL: B2 VL with G33S, S69T, L84V, A97E, Y100F
B4: pab1876 R103A (IgG1) (antibody, V domains shown)
VH: B1 VH with R103A
VL: B2 VL with A97D
B5: pab1967 (IgG1) (antibody, V domains shown)
VH: B1 VH with D31G, Y35H, I48M, V50L, D57G, T59S, K65R, D66E, K74T, V114I
VL: B2 VL with G33S, S69T, L84V, A97E, Y100F
B6: pab1876 D57G (IgG1) (antibody, V domains shown)
VH: B1 VH with D57G
VL: B2 VL with A97D

The target in this assay is human GITR (human) (UniProt Q9Y5U5). The assay is described as follows: flow cytometry on Jurkat cells expressing human GITR.
As for B1, the binding result is “binds”.
For B2 the value was “binds”; for B3, “binds”; for B4, “binds”.
For B5 the value was “binds”.
For B6 the value was “binds”.
